Experimental data as given in PMC10892618.
Results are given in words; binding and its absence hold for the method and conditions named. Binding seen in cells or lysates may run through a third protein. Some binding calls cover weakened binding; strength is not graded here. For some assays here: Sequences can lack the tags named with a protein.

By UniProt entry, the sequences of proteins in these tests, tags left out.
UniProt P16403: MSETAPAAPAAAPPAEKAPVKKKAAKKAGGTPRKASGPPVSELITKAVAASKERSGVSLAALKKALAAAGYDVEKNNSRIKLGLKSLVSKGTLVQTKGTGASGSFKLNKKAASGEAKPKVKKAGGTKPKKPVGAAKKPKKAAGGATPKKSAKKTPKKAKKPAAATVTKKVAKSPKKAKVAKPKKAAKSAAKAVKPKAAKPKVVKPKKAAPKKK
UniProt Q7Z434: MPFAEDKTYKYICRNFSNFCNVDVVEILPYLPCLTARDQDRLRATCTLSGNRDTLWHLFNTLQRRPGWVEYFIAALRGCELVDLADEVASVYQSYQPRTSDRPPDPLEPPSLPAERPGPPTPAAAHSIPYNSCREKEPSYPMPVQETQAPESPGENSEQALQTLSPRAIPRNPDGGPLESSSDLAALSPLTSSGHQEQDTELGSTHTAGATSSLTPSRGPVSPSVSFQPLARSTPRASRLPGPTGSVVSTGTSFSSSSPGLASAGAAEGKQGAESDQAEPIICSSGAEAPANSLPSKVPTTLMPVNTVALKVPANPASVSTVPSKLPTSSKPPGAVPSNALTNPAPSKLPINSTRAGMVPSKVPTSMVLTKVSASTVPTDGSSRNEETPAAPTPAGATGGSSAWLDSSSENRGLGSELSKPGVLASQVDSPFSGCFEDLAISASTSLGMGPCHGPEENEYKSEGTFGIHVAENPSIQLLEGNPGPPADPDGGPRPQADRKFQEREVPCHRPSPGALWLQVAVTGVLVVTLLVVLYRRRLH

Key:
Myc-tagged histone H1.2 = Myc-tagged histone H1.2 (UniProt P16403); assay: co-IP; HEK293T co-transfected with pCMV-Myc-H1.2 and a pCMV-Flag plasmid for 36 h; RIPA lysate; H1.2 as the precipitated protein; Protein G Agarose; western blotting
Flag-tagged MDA5 = target: T1, Flag-tagged MDA5 (UniProt Q9BYX4); assay: co-IP; reverse co-IP: HEK293T co-transfected with pCMV-Myc-H1.2 and a pCMV-Flag plasmid for 36 h; immunoprecipitation with anti-Flag antibody; western blotting
T1 sequence: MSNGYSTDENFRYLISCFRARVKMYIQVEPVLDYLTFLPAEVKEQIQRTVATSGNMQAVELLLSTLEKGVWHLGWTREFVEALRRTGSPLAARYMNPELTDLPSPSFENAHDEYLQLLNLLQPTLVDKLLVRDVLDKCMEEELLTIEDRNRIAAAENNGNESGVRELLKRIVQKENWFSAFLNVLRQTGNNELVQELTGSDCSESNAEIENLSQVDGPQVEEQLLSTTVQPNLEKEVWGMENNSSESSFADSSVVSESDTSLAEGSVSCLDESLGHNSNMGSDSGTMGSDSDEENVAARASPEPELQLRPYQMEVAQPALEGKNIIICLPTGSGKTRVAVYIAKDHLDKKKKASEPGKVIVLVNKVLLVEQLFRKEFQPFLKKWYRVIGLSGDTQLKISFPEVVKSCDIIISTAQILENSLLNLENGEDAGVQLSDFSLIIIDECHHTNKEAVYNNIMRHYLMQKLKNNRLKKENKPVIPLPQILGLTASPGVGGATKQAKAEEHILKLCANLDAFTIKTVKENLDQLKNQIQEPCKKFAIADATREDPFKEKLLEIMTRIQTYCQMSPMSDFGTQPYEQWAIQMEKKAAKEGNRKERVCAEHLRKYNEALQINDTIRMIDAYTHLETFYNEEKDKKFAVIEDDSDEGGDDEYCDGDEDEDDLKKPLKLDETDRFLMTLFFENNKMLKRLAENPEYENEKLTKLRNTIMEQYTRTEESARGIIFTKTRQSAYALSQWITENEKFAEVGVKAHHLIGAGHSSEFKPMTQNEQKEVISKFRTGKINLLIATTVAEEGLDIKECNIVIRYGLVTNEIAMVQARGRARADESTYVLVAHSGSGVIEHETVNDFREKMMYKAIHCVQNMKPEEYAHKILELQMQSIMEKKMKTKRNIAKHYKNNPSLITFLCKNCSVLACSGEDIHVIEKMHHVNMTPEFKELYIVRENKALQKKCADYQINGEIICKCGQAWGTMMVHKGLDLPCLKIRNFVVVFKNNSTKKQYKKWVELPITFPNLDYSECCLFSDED

Row | Substance | binding (Myc-tagged histone H1.2) | binding (Flag-tagged MDA5)
1 | Flag-tagged MAVS (from UniProt Q7Z434 1-540) | no binding | 
2 | Myc-tagged histone H1.2 (from UniProt P16403 1-213) |  | binds
